Results are given in words; binding and its absence hold for the method and conditions named. In cells and extracts the contact can be indirect. Some binding calls cover weakened binding; strength is not graded here. Sequences can lack the tags named with a protein.
Biological target: T1, endogenous SIRT1 of N1E-115 cells (mouse (endogenous in N1E-115)) (UniProt Q923E4)
T1 sequence: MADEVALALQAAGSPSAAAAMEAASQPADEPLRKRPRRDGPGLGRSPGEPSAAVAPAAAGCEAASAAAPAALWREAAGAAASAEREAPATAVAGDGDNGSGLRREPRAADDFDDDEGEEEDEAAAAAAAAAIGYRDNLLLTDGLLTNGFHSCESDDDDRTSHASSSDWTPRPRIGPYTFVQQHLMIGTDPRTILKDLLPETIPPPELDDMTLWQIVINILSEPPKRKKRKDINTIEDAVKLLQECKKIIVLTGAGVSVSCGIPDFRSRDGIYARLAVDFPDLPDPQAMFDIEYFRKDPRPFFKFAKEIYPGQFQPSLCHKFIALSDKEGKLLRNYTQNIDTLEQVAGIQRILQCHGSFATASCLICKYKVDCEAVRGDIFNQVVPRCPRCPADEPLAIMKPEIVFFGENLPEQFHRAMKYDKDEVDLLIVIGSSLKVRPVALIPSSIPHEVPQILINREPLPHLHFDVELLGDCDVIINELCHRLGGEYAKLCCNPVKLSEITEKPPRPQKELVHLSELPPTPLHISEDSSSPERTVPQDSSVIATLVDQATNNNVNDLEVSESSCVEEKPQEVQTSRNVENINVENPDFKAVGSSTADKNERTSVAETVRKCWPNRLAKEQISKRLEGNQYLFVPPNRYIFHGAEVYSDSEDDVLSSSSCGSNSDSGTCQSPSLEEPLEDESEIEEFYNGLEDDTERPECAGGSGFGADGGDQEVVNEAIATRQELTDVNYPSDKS
Experiment: co-IP; N1E-115 cells transfected with Myc-NDPK-D; lysates immunoprecipitated with anti-SIRT1 antibody or control IgG, blotted with anti-Myc antibody

B1: Myc-tagged NDPK-D (nucleoside diphosphate kinase D), expressed in N1E-115 cells (protein, UniProt O00746 29-187)
chain: GSGGPSWTRERTLVAVKPDGVQRRLVGDVIQRFERRGFTLVGMKMLQAPESVLAEHYQDLRRKPFYPALIRYMSSGPVVAMVWEGYNVVRASRAMIGHTDSAEAAPGTIRGDFSVHISRNVIHASDSVEGAQREIQLWFQSSELVSWADGGQHSSIHPA
binding: binds
